One sequence from publication PMC11477680 can be followed below.

For some of these results: No signal at the amounts used counts as a negative. For some of these results: The exact form of at least one protein or probe is not confirmed.

For data set [1], the target named is cardiac troponin I (cTnI) (UniProt P19429). Description: not stated (cited). As to conditions: 5'-SH-(C6) thiol linker; Aptamer immobilization: 20 mM Tris-HCl, 5 mM MgCl2, 50 mM NaCl, pH 7.4, 4 C; cTnI incubation 1 h (serum samples: 10% serum in 20 mM Tris-HCl, 150 mM NaCl, pH 7.4, 37 C); commercial protein; single-stranded DNA.
The test system of the next data set is hemoglobin (Hb). Description: electrochemical aptasensor (DPV). As to conditions: 1 ng/mL, negligible current change; 5'-SH-(C6) thiol linker; Aptamer immobilization: 20 mM Tris-HCl, 5 mM MgCl2, 50 mM NaCl, pH 7.4, 4 C; cTnI incubation 1 h (serum samples: 10% serum in 20 mM Tris-HCl, 150 mM NaCl, pH 7.4, 37 C); commercial protein; single-stranded DNA.
Data set [2] deals with cardiac troponin T (cTnT). Description: electrochemical aptasensor (DPV). As to conditions: 1 ng/mL, negligible current change; 5'-SH-(C6) thiol linker; Aptamer immobilization: 20 mM Tris-HCl, 5 mM MgCl2, 50 mM NaCl, pH 7.4, 4 C; cTnI incubation 1 h (serum samples: 10% serum in 20 mM Tris-HCl, 150 mM NaCl, pH 7.4, 37 C); commercial protein; single-stranded DNA.
For data set [3], the target named is bovine serum albumin (BSA) (bovine) (UniProt P02769). Description: electrochemical aptasensor (DPV). The following applies: 1 ng/mL, negligible current change; 5'-SH-(C6) thiol linker; Aptamer immobilization: 20 mM Tris-HCl, 5 mM MgCl2, 50 mM NaCl, pH 7.4, 4 C; cTnI incubation 1 h (serum samples: 10% serum in 20 mM Tris-HCl, 150 mM NaCl, pH 7.4, 37 C); commercial protein; single-stranded DNA.

On to “CGTGCAGTACGCCAACCTTTCTCATGCGCTGCCCCCCTCTTA [Tro4]”, for which the Kd in data set [1] was 0.27 nM. The binding result (in the data set on hemoglobin (Hb); in data set [2]; in data set [3]) was “no binding” each time.
